Results as given in the supplement of paper PMC10689618.
Structures can show the parent of a compound that is named as a salt. The list shows a part of the results. Repeats are few or missing, and single values can be far off.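 Primary human fetal astrocytes engulfed labelled rat cortical synaptosomes, measured as a red/green ratio corrected for calcein live-cell signal and scaled to the plate median. Toxicity meant calcein falling over 30%; decreased phagocytosis meant below 70% of median above 5 µM.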

Key:
Details in all cases: 24 h
Human fetal astrocytes [1] = test: loss of total cells relative to no-compound high-control median (toxicity); higher = more toxic (fewer cells)
Human fetal astrocytes [2] = test: synaptosome phagocytosis (pHrodo/calcein intensity ratio) relative to plate median of data wells; higher = more phagocytosis
Human fetal astrocytes [3] = test: loss of total cells relative to no-compound high-control median (toxicity); higher = more toxic (fewer cells); remark: listed apart in the source
Human fetal astrocytes [4] = test: synaptosome phagocytosis (pHrodo/calcein intensity ratio) relative to plate median of data wells; higher = more phagocytosis; remark: listed apart in the source

Row | Structure (SMILES) | loss of total cells (Human fetal astrocytes [1]; 1.39 µM) | loss of total cells (Human fetal astrocytes [1]; 2.78 µM) | loss of total cells (Human fetal astrocytes [1]; 5.56 µM) | loss of total cells (Human fetal astrocytes [1]; 11.11 µM) | loss of total cells (Human fetal astrocytes [1]; 22.22 µM) | synaptosome phagocytosis (Human fetal astrocytes [2]; 1.39 µM) | synaptosome phagocytosis (Human fetal astrocytes [2]; 2.78 µM) | synaptosome phagocytosis (Human fetal astrocytes [2]; 5.56 µM) | synaptosome phagocytosis (Human fetal astrocytes [2]; 11.11 µM) | synaptosome phagocytosis (Human fetal astrocytes [2]; 22.22 µM) | loss of total cells (Human fetal astrocytes [3]; 1.39 µM) | loss of total cells (Human fetal astrocytes [3]; 2.78 µM) | loss of total cells (Human fetal astrocytes [3]; 5.56 µM) | loss of total cells (Human fetal astrocytes [3]; 11.11 µM) | loss of total cells (Human fetal astrocytes [3]; 22.22 µM) | synaptosome phagocytosis (Human fetal astrocytes [4]; 1.39 µM) | synaptosome phagocytosis (Human fetal astrocytes [4]; 2.78 µM) | synaptosome phagocytosis (Human fetal astrocytes [4]; 5.56 µM) | synaptosome phagocytosis (Human fetal astrocytes [4]; 11.11 µM) | synaptosome phagocytosis (Human fetal astrocytes [4]; 22.22 µM)
1 | COc1cccc2c1cc([N+](=O)[O-])c1c(C(=O)O)cc3c(c12)OCO3 | -23% | -13.4% | -5.9% | -0.7% | 8.9% | 82.8% | 85.2% | 99.5% | 114% | 94.6% |  |  |  |  |  |  |  |  |  | 
2 | O=c1cccc2n1C[C@@H]1CNC[C@H]2C1 | 11.2% | 26.4% | 10.9% | 13.8% | 11.4% | 112% | 83.6% | 114% | 131% | 82% |  |  |  |  |  |  |  |  |  | 
3 | C[N+]1(C)CCCC(OC(=O)C(O)(c2ccccc2)c2ccccc2)C1 (stereo not given) | 0.9% | -28.8% | 8.4% | -1.4% | -11.9% | 109% | 106% | 108% | 101% | 69.9% |  |  |  |  |  |  |  |  |  | 
4 | O=c1[nH]oc2c1CCNC2 [THIP hydrochloride] | 13.4% | 4% | 21.7% | 6.3% | 21.2% | 140% | 135% | 112% | 99.8% | 131% | -9.6% | -11.1% | -6.2% | -20.3% | -9.9% | 128% | 117% | 125% | 123% | 93.2%
5 | COc1cc2c(cc1-c1cc3cc4ccoc4cc3oc1=O)OCO2 | 4.7% | -3.3% | 33.6% | 5.8% | 6.3% | 108% | 57.6% | 126% | 104% | 141% |  |  |  |  |  |  |  |  |  | 
6 | O=P1(NCCCl)OCCCN1CCCl (stereo not given) | -12.9% | -23.8% | 0% | -18.7% | 5.9% | 88.5% | 94% | 87.8% | 86.3% | 125% |  |  |  |  |  |  |  |  |  | 
7 | CC[C@H]1[C@@H]2C[C@H]3[C@@H]4N(C)c5ccccc5[C@]45C[C@@H]([C@@H]2[C@H]5O)N3[C@@H]1O | 7.6% | 20.6% | 10.1% | 17.2% | 17.4% | 94.4% | 131% | 95% | 80.1% | 69.9% |  |  |  |  |  |  |  |  |  | 
8 | O=[N+]([O-])c1cc([As](=O)(O)O)ccc1O | 10.4% | 0.3% | -0.7% | 3.2% | 12.5% | 102% | 106% | 118% | 101% | 114% |  |  |  |  |  |  |  |  |  | 
9 | NCC(=O)c1ccccc1 | -23.8% | -9.7% | -16.8% | 2.7% | 14.1% | 110% | 114% | 98.4% | 104% | 121% |  |  |  |  |  |  |  |  |  | 
10 | CN1C[C@H](CNC(=O)OCc2ccccc2)C[C@@H]2c3cccc4c3c(cn4C)C[C@H]21 | 9.7% | 19.9% | 7.2% | -6.3% | 14.4% | 95.2% | 126% | 110% | 62.5% | 87.8% |  |  |  |  |  |  |  |  |  | 
11 | C[N+]1([O-])[C@@H]2CC[C@H]1CC(OC(=O)C(CO)c1ccccc1)C2 (stereo not given in full) | -30.7% | 0.3% | -12.9% | -21.9% | 1.1% | 65% | 91.4% | 77.6% | 136% | 75.4% |  |  |  |  |  |  |  |  |  | 
12 | CN(C)C(=S)SSC(=S)N(C)C [Thiram Thiram Tuex TMTD TNTD TUEX Heryl Tmtds Tuads Tutan] | 5.6% | -37.3% | 19.3% | 23.3% | 40.2% | 54% | 31.2% | 38.8% | 37.6% | 50.5% |  |  |  |  |  |  |  |  |  | 
13 | C=CCSSCC=C | -4.1% | 1.8% | 4.4% | 22.3% | 7.4% | 109% | 101% | 102% | 109% | 90.7% |  |  |  |  |  |  |  |  |  | 
14 | C[C@@H]1C[C@@H]([C@H](O)CC2CC(=O)NC(=O)C2)C(=O)[C@@H](C)C1 | -25.8% | -23% | -8.7% | -5.6% | 12.1% | 107% | 83.6% | 58.9% | 57.6% | 64.3% |  |  |  |  |  |  |  |  |  | 
15 | CC1(C)C2C[C@@H](O)[C@]3(C)C(CC[C@@]4(C)[C@H](c5ccoc5)OC(=O)[C@H]5O[C@]543)[C@@]2(C)[C@@H](O)C[C@H]1O (stereo not given in full) | 27.2% | -12% | 0% | 52.9% | -1.9% | 119% | 98.9% | 100% | 163% | 95% |  |  |  |  |  |  |  |  |  | 
16 | CC(=O)O[C@@H]1CC[C@@]2(C)[C@@H](CC[C@@H]3[C@@H]2CC[C@]2(C)C(=O)CC[C@@H]32)C1 | -7.6% | -2.7% | 40.5% | -13.5% | 39.6% | 106% | 121% | 142% | 93.2% | 182% |  |  |  |  |  |  |  |  |  | 

Some values from the results shown.
Under synaptosome phagocytosis (Human fetal astrocytes [4]; 11.11 µM), O=c1[nH]oc2c1CCNC2 [THIP hydrochloride] is listed with 123%
Under loss of total cells (Human fetal astrocytes [1]; 1.39 µM), O=c1cccc2n1C[C@@H]1CNC[C@H]2C1 is listed with 11.2%
